Among the data in ChEMBL document CHEMBL4513140, “CO-ADD screening of Lancaster University (UK) compounds” (2021) are Inhibition values, retold here.

As usually defined, the Inhibition is the change of the read-out against control, counted positive when it falls.

Some of the results follow. Results with a measured potency or affinity are listed apart.

The test has as its system Acinetobacter baumannii. The conditions noted are these: Concentration 32 ug.mL-1; ASSAY_TEST Inhibition of Bacterial Growth; detection method Absorption (OD600); MEDIA CAMHB; plate type 384well; NBS; CORNING #3640; time 18 hr.
For the compound `COC(=O)c1ccc(S)cc1`, the Inhibition came to 2.25%.
For the compound `c1ccc2nc3c4cccnc4c4ncccc4c3nc2c1`, the Inhibition is listed as 14.38%.
As to `CC(=O)c1cc(C(C)=O)cc(C(C)=O)c1`, the Inhibition stood at 3.33%.
For `CC(=NN)c1cc(/C(C)=N/N)cc(/C(C)=N/N)c1`, the Inhibition is -2.44%.
